Experimental data published in the supplement of paper PMC3334620.
The full ranking holds about 33,000 sequences; the median of “E-score (-0.5 to 0.5)” is about -8e-05, and the highest 2% start at about 0.23. The list shows a part of the results.

Molecular target: T1, Nrg2 (UniProt P38082)
T1 sequence: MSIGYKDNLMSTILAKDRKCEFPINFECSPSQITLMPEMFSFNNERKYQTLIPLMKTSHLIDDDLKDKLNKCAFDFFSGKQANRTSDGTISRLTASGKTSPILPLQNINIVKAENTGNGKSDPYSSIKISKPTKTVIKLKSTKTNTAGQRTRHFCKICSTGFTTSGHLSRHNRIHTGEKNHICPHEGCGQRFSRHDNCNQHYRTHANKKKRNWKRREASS
Assay: PBM E-score (8-mer binding enrichment) (E-score (-0.5 to 0.5)); higher = stronger / more preferred TF binding
Details: protein concentration: 100 nM; construct: GST-full length
Summary of the method: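 E-scores (a modified Wilcoxon-Mann-Whitney statistic) were assigned by the Universal PBM Analysis Suite to every ungapped eight-base word pooled with its reverse complement. The input came from universal all-10-mer Agilent arrays made double-stranded by primer extension and probed with GST-tagged yeast transcription factors at about 100-200 nM. Fluorescent anti-GST detected bound protein, and masliner normalised the scans.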

| Sequence | PBM E-score |
| --- | --- |
| CCCCTTCC | -0.187 |
| ATTCACAA | 0.227 |
| ACTAAAGG | 0.0464 |
| GAATGGGC | 0.035 |
| CGCACGCG | -0.0533 |
| CAGAGCAC | 0.0415 |
| GATCTGGC | 0.0551 |
| GGGGGCAC | -0.336 |
| ATCGGTGG | -0.15 |
| ATCCGATG | 0.106 |
| ACCCATCA | 0.00202 |
| AGGGCCCA | 0.359 |
| AACTGGCT | -0.114 |
| AGAGCGGG | -0.128 |
| CGAAGGCC | -0.187 |
| GATAAGGC | -0.121 |
| AAAAGGCG | -0.116 |
| CCTAATCC | -0.129 |
| AATAAATC | 0.0327 |
| GAGTTGAA | -0.0984 |
| CATACGAA | 0.0303 |
| CTTCCCGC | 0.0249 |
| GTCCCCTA | 0.188 |
| AGTGAACT | 0.0442 |
| AATTGCCG | -0.0513 |

| Sequence | PBM E-score |
| --- | --- |
| ACTCCCCG | 0.0706 |
| GGCGGACA | -0.00785 |
| GCCAGTTA | 0.0271 |
| CTTAAATA | -0.1 |
| CGACCCTA | 0.109 |
| AGTCGTAT | -0.0199 |
| GGTGACCA | -0.127 |
| CCGATGCG | -0.107 |
| GGCTTGGA | -0.237 |
| CGGTACGA | -0.111 |
| ACCCATTA | 0.0341 |
| GTGCTTGA | -0.0768 |
| CCCACGCG | -0.081 |
| CGAACACG | 0.0814 |
| AAGGGGCT | 0.0982 |
| CAAGTGTG | 0.0311 |
| GCGTATCC | -0.198 |
| CGAAGTCG | 0.174 |
| ACCATAGG | -0.217 |
| AATAAAAA | 0.15 |
| GAGTTAGA | -0.0619 |
| GATGGTAA | -0.0415 |
| AGTTGGCG | 0.0156 |
| GATTATCA | 0.0629 |
| CGACGTCG | 0.0466 |

| Sequence | PBM E-score |
| --- | --- |
| GACAGAGA | -0.0169 |
| CGAAGCCG | -0.0196 |
| ACATGCTA | 0.00595 |
| CTAATTAC | 0.15 |
| GGTAATAA | 0.188 |
| AGCAATAT | 0.0474 |
| AGAGTCAA | -0.155 |
| AGGTAGCA | -0.201 |
| CTTGTGGA | -0.0088 |
| ATGTACGG | 0.00875 |
| CATGGGAA | 0.0176 |
| AAGGAGAC | -0.156 |
| CGCGTTTA | 0.0535 |
| GGAAGGGA | -0.0876 |
| ACGGCCGC | 0.0427 |
| GGAGGTTA | -0.248 |
| AGAAGGGA | -0.222 |
| AAACAACT | 0.165 |
| AAAGAGGA | -0.103 |
| GTATATCA | 0.0512 |
| GCCGAGCA | -0.166 |
| CACCTCCC | -0.294 |
| AAATTAGC | 0.0728 |
| CGGTCAGC | -0.0927 |
| TTCTGAAA | 0.0452 |

| Sequence | PBM E-score |
| --- | --- |
| ACAACCGG | 0.0311 |
| GACGTCTA | -0.145 |
| ATACTGTA | 0.141 |
| CATTTGCC | -0.025 |
| AGGCGCAC | 0.131 |
| CGAGTACC | 0.0748 |
| AATGATAC | 0.184 |
| CACTTCAA | -0.0221 |
| CGCCCTTA | -0.0359 |
| CACTGATC | -0.0263 |
| CCTGAAAC | 0.0808 |
| AGGGTGAA | -0.0542 |
| CATATTCA | 0.113 |
| CGGCATGA | 0.187 |
| CTTTACCC | -0.191 |
| CCCTGCTC | -0.017 |
| CTGCGTGC | -0.107 |
| GGAGACCA | -0.0418 |
| CTCTAGGC | -0.114 |
| CCGGACGG | -0.235 |
| AACGCTCG | -0.029 |
| CCAAACTC | 0.0839 |
| ACCCGCGC | 0.229 |
| CGACCTAC | -0.222 |
| GATGGGGC | 0.0459 |

| Sequence | PBM E-score |
| --- | --- |
| GGCCTACA | 0.0651 |
| CGGGGAAC | -0.14 |
| AAAATCGC | 0.0796 |
| CCGTACAG | -0.063 |
| GTTACTAA | 0.0902 |
| CTGTTCGC | 0.0452 |
| CTGGGGTA | -0.077 |
| GCCCACCC | 0.184 |
| GGGTCTAA | 0.098 |
| GTCGGGTA | 0.052 |
| CTTAGATA | 0.0693 |
| ATACCGTA | 0.00794 |
| AATCGCCT | 0.0199 |
| ATGGCCAT | 0.0991 |
| GTTGTGAA | 0.00791 |
| CTATTGTC | 0.117 |
| ACGGGAAT | -0.101 |
| GATGGAAA | 0.00645 |
| TCCTCTCA | -0.0174 |
| ACCAAGTA | 0.159 |
| ACGGCAGG | 0.0215 |
| GTATATGA | 0.00303 |
| ATTTACTA | 0.0988 |
| ATTTTTCG | 0.204 |
| GGGTTCAA | 0.123 |

As a working copy, some entries already given:

| Sequence | PBM E-score |
| --- | --- |
| AATCGCCT | 0.0199 |
| ATGGCCAT | 0.0991 |
| GTTGTGAA | 0.00791 |
| CTATTGTC | 0.117 |
| ACGGGAAT | -0.101 |
| GATGGAAA | 0.00645 |

Next entries.

| Sequence | PBM E-score |
| --- | --- |
| CCGGATAA | 0.089 |
| GTTGGAGA | 0.023 |
| CTCTCCCA | -0.0787 |
| AGAGTAAC | -0.121 |
| ACGATAGG | -0.0145 |
| TCAACTAA | 0.0939 |
| GACGTTAA | 0.201 |
| AACTTAGG | -0.0229 |
| GTCTGGCA | -0.0905 |
| GGGTGCGA | -0.146 |
| AGGTGTCA | 0.211 |
| TGTTCAAA | 0.0766 |
| CCGAAAAA | 0.142 |
| AAAAATCA | 0.105 |
| GTTCAGGA | 0.0304 |
| CCATACAA | 0.0586 |
| CAAATTAC | -0.0296 |
| GAGACGAC | -0.0712 |
| CTTAGGAA | -0.0218 |
| ACCCGAAG | 0.00647 |
| CACTTTCC | -0.103 |
| GCGTTAGC | -0.0563 |
| ACCGTAGT | 0.0254 |
| TGTGTAAA | 0.142 |
| CAATCACA | -0.013 |

| Sequence | PBM E-score |
| --- | --- |
| AAACCCAA | 0.0986 |
| ATGAATTC | 0.117 |
| AACAATCA | 0.126 |
| ATCATAGG | -0.0259 |
| AGAGCAGG | 0.0559 |
| TATCGAGA | 0.0251 |
| ACAAGACT | 0.0293 |
| CCCAGGGG | -0.119 |
| GGTAGCCA | -0.101 |
| CGGGGTTA | 0.119 |
| GGTTGCGA | 0.167 |
| ATAGCAAT | 0.128 |
| AATGTTGC | 0.0146 |
| AAGTTGCG | 0.0873 |
| CAGGCACG | -0.0596 |
| CCCGCTCC | -0.383 |
| AAGGCCGC | 0.0278 |
| AGATTGGC | -0.165 |
| CTTGATTA | 0.114 |
| ATAGAGTG | 0.0129 |
| GGTGGACA | -0.0162 |
| AAATTCGG | 0.205 |

Quoted at random: four records from the list, in no set order.

| Sequence | PBM E-score |
| --- | --- |
| GGTGGACA | -0.0162 |
| AACAATCA | 0.126 |
| TATCGAGA | 0.0251 |
| AATGTTGC | 0.0146 |
